This is one part of the list.

Protein sequences, listed by entry. Tags and fused reporters are not part of them.
UniProt Q0JBA9, entry or part of it: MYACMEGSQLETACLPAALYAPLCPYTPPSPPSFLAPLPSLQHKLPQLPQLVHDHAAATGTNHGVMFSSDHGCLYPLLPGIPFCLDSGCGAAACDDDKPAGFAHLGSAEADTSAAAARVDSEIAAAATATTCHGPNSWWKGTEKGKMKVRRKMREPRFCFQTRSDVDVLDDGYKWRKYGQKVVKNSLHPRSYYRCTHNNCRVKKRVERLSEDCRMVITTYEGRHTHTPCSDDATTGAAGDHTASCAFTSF

The target in this experiment is OsWRKY34 (Oryza sativa, UniProt Q0JBA9 1-250). Briefly: protein-binding microarray (RPBM); PBS, 2% BSA, 51.3 ng/ul salmon testes DNA, 50 uM zinc acetate, 200 nM TF, 25 C, 1 h; high values mean tight binding. The note with it: protein: recombinant; tags: N-terminal polyhistidine and DsRed monomer fusion (pET32a); label: CyDye5-dUTP incorporated in the synthesized complementary strand; 3' TTTTT single-stranded linker to array surface; dsDNA, one strand shown. The gist of the method:
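Transcription factors were each fused at the N-terminus to a polyhistidine tag plus DsRed and expressed in E. coli BL21-CodonPlus before Ni–NTA purification. Binding to a double-stranded custom Agilent array was carried out with 200 nM protein at 25 °C for 1 h in PBS, 2% BSA, salmon testes DNA and 50 µM zinc acetate. The binding signal is per-feature fluorescence intensity, in arbitrary units, on an Axon 4000B scanner.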
“GTCTGATTTATGTTCATTCCTATAGGTTTATTCTGGTGACCGGAGTCACCTAGTGCAG”: the binding signal was 9390 fluorescence intensity (a.u.).

For “AGAGGAGAGGGAAGCCGCGCTGCGCGCACCACATGTTTGACGGAGTCACCTAGTGCAG”, the binding signal is 8150 fluorescence intensity (a.u.).

Regarding “TCCTATAAATTCTCCCACGCATCTAGGGCTTCGTCTCATCCGGAGTCACCTAGTGCAG”, the binding signal is 9200 fluorescence intensity (a.u.).

“CACCCATCGATCCATCCATCCATCGATCAGTTGTGAATTGCGGAGTCACCTAGTGCAG”: the binding signal was 10600 fluorescence intensity (a.u.).

In the case of “TATTATTTCACAAACATGCAAGTTCAAATTTTAACTTCTACGGAGTCACCTAGTGCAG”, the binding signal is 8730 fluorescence intensity (a.u.).

With “CATCATGCAGACACACAGGACCGATCGAACAGCAAACAATCGGAGTCACCTAGTGCAG”, the binding signal was 8350 fluorescence intensity (a.u.).

For the sequence “AACCACCACCGCCACCTCTCTTTGCCGCCGAAGATAAGCTCGGAGTCACCTAGTGCAG”, the binding signal was 8570 fluorescence intensity (a.u.).

As to “ATCCATGTCGACTCACACCCCACTAATTAATCTATTGCTACGGAGTCACCTAGTGCAG”, the binding signal is 9020 fluorescence intensity (a.u.).

With “CCTCTCGTTTTCCGCGCGCACGCTTTTTAAACTGTTAAACCGGAGTCACCTAGTGCAG”, the binding signal is 11800 fluorescence intensity (a.u.).

As for “ACCGTGTCCGCGCTCGCCTTCAAACCGTCCCCATCCTTTTCGGAGTCACCTAGTGCAG”, the binding signal was 10700 fluorescence intensity (a.u.).

Consider “TTCCTGTCCACGACACATTATATGCTGTTTTTTATCTTGTCGGAGTCACCTAGTGCAG”, for which the binding signal was 8410 fluorescence intensity (a.u.).

As to “CCTCTTTCTTCATTTTTTTTTTCTCCTCGGTGTCGTGGTTCGGAGTCACCTAGTGCAG”, the binding signal is 11700 fluorescence intensity (a.u.).

Regarding “GCGCATGTTTCCTTAACTGCTAGGTGTGTTTTTTATAAATCGGAGTCACCTAGTGCAG”, the binding signal was 8340 fluorescence intensity (a.u.).

For the sequence “TGACGGTGTTAGCTAGGTAGTTTGTTCGTGTTCGTTCATGCGGAGTCACCTAGTGCAG”, the binding signal was 9120 fluorescence intensity (a.u.).

Regarding “TTCCCTGCTGCACCTGCTCCTTCGCCGATTGCGTCGCTTCCGGAGTCACCTAGTGCAG”, the binding signal was 10100 fluorescence intensity (a.u.).

For the sequence “CTCGTAACACCTACACTACACGTATGAGCTGAACCCACCGCGGAGTCACCTAGTGCAG”, the binding signal is 8210 fluorescence intensity (a.u.).

Turning to “TCCATCTCACCCTGTGCCATTTGTACTCGCTGCTAGAGTTCGGAGTCACCTAGTGCAG”, the binding signal was 9020 fluorescence intensity (a.u.).

As to “AACCCGCCCGGCCGCCACACACGCCTCTCTAGCTACCCGGCGGAGTCACCTAGTGCAG”, the binding signal was 8870 fluorescence intensity (a.u.).

Turning to “TCTCCTCGCCATCTTCCTCCGCCACCACCGCCCATTCTCACGGAGTCACCTAGTGCAG”, the binding signal was 9160 fluorescence intensity (a.u.).

For “CACACCGCCGCCGCCCGCATACGATCCCCGCAACGGACCGCGGAGTCACCTAGTGCAG”, the binding signal is 8740 fluorescence intensity (a.u.).

For “GACCAGTAGCACCGCCGCTTCTCCGCCGCTCGCTCCGACTCGGAGTCACCTAGTGCAG”, the binding signal was 9790 fluorescence intensity (a.u.).

Regarding “GGTTTCGGTGGCCATCTCCTGTGGCTGGTGCTTGTATTGTCGGAGTCACCTAGTGCAG”, the binding signal is 8850 fluorescence intensity (a.u.).

With “TTTCCTTCACTTATCCGGTTCAACATTTTCCTAGTTTATGCGGAGTCACCTAGTGCAG”, the binding signal is 8700 fluorescence intensity (a.u.).

For the sequence “AAGCCAGCCATCCGTTTGCTTCCTCTGCAGCTTGCTCCATCGGAGTCACCTAGTGCAG”, the binding signal was 10900 fluorescence intensity (a.u.).

As for “TTCCTTTTACACCCCATATCCATCGTCCCGCCTTTCTTTCCGGAGTCACCTAGTGCAG”, the binding signal is 8480 fluorescence intensity (a.u.).

For “TGGTTTTATGTGTGAGTTGGGGTAGTGGCGTTGGTAGGTTCGGAGTCACCTAGTGCAG”, the binding signal was 11700 fluorescence intensity (a.u.).

For the sequence “GTGTGTGTGGTGGTAATGGATAATTGGCGTGTGGTTAACCCGGAGTCACCTAGTGCAG”, the binding signal was 12300 fluorescence intensity (a.u.).

As for “ACCAACCTCTCCCTGTCTATCCCATATTATTCGTCTCCTTCGGAGTCACCTAGTGCAG”, the binding signal was 9280 fluorescence intensity (a.u.).

Consider “GTCTCGGCTCCCGCATCCTCGCGAGTTCGCCAGCCGCCGCCGGAGTCACCTAGTGCAG”, for which the binding signal is 9940 fluorescence intensity (a.u.).

With “GGTGACTCAGCCCTCAAATCATAGTTGTTGACTAAGTATCCGGAGTCACCTAGTGCAG”, the binding signal was 9030 fluorescence intensity (a.u.).

In the case of “TTTGTTTTACCATTATTTTGTTCGTCTCGTTAGGATTTGTCGGAGTCACCTAGTGCAG”, the binding signal was 8030 fluorescence intensity (a.u.).

For “AAATCCCATCAACCCCGCCGCCGCCGCCGCCGCCGCCACCCGGAGTCACCTAGTGCAG”, the binding signal is 8950 fluorescence intensity (a.u.).

In the case of “GTGGGCCGAGCCTTCTCGTGTGTGGGTAGACTCCATGTCCCGGAGTCACCTAGTGCAG”, the binding signal was 10500 fluorescence intensity (a.u.).

Regarding “CCGTTTTCATTCCATATACAAACCGCGGCCACCGTTCAAACGGAGTCACCTAGTGCAG”, the binding signal is 10700 fluorescence intensity (a.u.).

As to “GATCCGCATCACTGATTCACTGCACTTCGCCCGCCGTCTGCGGAGTCACCTAGTGCAG”, the binding signal was 9810 fluorescence intensity (a.u.).

Regarding “CATTTTTGTTTTTTACTGGGAGATTTTTTTTCCTTTTTCTCGGAGTCACCTAGTGCAG”, the binding signal was 11200 fluorescence intensity (a.u.).

With “ATCTATTTCAGTTCTGTTGCTTCTGTATGTTACTAAAAACCGGAGTCACCTAGTGCAG”, the binding signal was 9510 fluorescence intensity (a.u.).

For the sequence “AGTGATGATTGTTGTGCATGCATTTTGTGTCTTTTAGAGACGGAGTCACCTAGTGCAG”, the binding signal is 14900 fluorescence intensity (a.u.).

As for “TTAACACACGAAATTACACGTCAACACTGAATACCATGTCCGGAGTCACCTAGTGCAG”, the binding signal is 10000 fluorescence intensity (a.u.).

“CGCCACCGCCACCGCCCGTCCACATCCGCCGGCGCCGATGCGGAGTCACCTAGTGCAG”: the binding signal is 9270 fluorescence intensity (a.u.).

“CGCCATCCAGATCCCAACCGTCCACTCCCTACCCATCCAACGGAGTCACCTAGTGCAG”: the binding signal was 13000 fluorescence intensity (a.u.).

On to “ACCTCCACCACCGCCTAATCTAGGTGCATGCTTTATTTACCGGAGTCACCTAGTGCAG”, for which the binding signal is 8510 fluorescence intensity (a.u.).

The values above are taken from PMC7819943, “Rice protein-binding microarrays: a tool to detect cis-acting elements near promoter regions in rice”.
